Measured values reported in the supplement of paper PMC10849652.
The other results are listed elsewhere or left out. Residues, ends and D or L forms follow the SMILES beside them. *: point of attachment. Cbz = O=C(OCc1ccccc1)*

Amino acid sequences for entries named in this document (tags omitted). A change or cut given only in a name is not applied to a line headed by its entry.
UniProt O94806: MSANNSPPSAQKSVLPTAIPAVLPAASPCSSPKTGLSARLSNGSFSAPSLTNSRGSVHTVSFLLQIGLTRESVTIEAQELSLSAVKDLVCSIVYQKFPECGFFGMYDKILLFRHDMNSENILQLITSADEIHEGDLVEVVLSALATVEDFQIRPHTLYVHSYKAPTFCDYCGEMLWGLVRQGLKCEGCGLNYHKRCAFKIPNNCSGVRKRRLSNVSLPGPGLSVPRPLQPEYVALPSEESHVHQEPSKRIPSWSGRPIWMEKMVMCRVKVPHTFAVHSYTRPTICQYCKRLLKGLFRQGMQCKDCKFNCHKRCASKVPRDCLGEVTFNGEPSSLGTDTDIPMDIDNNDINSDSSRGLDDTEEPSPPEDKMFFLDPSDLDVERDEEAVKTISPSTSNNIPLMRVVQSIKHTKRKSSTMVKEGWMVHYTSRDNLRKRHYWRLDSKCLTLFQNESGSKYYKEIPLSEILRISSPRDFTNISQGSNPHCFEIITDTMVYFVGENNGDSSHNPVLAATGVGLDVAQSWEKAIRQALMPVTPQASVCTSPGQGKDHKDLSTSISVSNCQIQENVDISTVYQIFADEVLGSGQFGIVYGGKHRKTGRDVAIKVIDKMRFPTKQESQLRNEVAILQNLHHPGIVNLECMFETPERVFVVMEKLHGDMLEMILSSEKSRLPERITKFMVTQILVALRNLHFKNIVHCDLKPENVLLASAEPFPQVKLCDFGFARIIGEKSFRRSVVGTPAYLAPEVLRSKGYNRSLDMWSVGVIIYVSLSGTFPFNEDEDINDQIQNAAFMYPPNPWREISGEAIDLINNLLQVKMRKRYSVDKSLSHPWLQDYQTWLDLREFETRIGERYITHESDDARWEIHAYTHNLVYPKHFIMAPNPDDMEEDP
UniProt Q16537, whole entry, looked up: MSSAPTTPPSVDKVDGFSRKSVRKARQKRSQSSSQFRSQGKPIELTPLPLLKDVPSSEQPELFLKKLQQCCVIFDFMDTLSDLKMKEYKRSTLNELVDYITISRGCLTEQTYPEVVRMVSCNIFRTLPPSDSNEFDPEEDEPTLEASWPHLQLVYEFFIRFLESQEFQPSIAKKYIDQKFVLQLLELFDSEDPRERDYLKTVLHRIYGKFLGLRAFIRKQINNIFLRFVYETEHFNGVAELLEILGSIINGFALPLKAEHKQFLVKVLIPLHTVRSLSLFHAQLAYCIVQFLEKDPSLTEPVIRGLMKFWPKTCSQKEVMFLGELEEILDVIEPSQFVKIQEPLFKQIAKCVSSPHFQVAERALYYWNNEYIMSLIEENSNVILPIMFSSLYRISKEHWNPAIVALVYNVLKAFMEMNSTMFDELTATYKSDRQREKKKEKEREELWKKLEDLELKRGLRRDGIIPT
UniProt Q04759: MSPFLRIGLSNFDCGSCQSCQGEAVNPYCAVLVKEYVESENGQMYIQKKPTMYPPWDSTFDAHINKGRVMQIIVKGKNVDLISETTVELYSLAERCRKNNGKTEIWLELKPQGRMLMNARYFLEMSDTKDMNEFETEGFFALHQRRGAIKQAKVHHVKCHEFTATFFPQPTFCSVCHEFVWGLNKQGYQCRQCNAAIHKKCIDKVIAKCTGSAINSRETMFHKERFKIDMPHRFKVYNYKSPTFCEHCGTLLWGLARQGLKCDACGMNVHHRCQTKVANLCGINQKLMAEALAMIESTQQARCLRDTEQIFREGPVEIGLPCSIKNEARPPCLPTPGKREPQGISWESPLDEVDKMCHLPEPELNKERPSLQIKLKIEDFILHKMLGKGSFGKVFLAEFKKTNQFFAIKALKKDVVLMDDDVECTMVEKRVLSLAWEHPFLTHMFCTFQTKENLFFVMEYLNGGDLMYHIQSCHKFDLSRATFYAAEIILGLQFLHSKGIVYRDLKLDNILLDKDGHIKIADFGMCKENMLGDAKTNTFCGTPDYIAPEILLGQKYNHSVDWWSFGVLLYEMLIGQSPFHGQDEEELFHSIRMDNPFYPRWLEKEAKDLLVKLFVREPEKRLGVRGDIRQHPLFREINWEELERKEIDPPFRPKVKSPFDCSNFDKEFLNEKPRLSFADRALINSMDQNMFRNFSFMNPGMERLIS
UniProt Q9BZL4: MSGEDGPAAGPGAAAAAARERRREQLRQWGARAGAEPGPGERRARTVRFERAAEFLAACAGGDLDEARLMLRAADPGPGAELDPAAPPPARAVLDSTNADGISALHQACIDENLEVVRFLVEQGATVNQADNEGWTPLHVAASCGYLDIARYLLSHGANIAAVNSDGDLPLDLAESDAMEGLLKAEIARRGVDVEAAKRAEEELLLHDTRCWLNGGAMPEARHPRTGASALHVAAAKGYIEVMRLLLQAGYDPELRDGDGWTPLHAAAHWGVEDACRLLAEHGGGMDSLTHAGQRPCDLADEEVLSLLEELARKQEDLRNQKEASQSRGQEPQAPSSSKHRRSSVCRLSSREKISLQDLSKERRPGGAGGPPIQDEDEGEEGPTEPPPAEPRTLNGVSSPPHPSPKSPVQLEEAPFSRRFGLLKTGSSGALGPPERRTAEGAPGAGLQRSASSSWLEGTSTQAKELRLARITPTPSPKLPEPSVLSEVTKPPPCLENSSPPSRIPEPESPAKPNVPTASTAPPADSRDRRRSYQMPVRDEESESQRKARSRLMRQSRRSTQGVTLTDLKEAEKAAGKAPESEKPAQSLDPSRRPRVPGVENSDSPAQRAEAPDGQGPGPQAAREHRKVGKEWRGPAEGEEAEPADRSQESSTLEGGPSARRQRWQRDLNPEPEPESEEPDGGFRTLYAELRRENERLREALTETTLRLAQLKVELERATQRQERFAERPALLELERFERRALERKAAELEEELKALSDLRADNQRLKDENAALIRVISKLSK
UniProt P31321, whole entry, looked up: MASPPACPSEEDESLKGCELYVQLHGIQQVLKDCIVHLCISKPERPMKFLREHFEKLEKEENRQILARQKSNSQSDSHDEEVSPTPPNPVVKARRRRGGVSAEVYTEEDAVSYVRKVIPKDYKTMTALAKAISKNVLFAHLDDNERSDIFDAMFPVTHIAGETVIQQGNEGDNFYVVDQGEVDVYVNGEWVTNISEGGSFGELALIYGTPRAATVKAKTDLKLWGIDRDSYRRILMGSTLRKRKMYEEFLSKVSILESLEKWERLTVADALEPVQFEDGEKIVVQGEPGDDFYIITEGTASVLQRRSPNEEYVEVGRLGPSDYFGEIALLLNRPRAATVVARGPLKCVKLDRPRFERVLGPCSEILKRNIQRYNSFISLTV
UniProt Q9Y3B1: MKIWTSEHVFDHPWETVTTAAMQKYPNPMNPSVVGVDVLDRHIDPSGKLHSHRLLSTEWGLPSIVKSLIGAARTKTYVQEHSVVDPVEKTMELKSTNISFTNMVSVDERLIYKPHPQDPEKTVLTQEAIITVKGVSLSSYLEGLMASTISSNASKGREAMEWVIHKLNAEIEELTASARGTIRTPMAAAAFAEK
UniProt Q15172: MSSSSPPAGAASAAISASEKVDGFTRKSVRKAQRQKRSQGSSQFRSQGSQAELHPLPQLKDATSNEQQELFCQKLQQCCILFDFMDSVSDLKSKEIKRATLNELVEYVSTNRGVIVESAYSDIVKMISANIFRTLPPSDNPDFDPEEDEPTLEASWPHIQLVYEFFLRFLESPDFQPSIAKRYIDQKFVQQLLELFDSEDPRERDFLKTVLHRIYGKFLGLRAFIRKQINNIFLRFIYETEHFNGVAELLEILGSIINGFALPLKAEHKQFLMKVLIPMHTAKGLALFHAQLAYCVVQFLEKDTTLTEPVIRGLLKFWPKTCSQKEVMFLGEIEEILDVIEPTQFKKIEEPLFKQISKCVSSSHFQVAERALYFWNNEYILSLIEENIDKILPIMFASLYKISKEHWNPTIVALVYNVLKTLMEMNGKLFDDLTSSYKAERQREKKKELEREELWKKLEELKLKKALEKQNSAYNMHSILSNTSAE
UniProt Q9UNN8: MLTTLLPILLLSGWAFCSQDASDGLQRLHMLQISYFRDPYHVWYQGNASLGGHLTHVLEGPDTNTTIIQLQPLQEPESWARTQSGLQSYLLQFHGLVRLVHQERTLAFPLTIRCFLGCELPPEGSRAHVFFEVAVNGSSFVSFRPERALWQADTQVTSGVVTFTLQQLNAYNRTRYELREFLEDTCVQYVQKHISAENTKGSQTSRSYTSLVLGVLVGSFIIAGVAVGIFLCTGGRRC
UniProt P41219, whole entry, looked up: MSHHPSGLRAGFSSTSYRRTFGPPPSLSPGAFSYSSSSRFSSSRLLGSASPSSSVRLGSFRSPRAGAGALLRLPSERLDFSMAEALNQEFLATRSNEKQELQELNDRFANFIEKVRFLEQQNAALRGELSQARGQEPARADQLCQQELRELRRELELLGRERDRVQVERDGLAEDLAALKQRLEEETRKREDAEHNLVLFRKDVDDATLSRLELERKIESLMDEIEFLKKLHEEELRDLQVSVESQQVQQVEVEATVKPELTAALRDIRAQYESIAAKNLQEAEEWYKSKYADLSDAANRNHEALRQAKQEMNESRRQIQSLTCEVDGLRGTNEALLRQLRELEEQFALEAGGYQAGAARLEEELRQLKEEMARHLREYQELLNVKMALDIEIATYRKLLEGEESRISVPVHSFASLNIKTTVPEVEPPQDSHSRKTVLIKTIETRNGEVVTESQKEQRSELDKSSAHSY
UniProt Q15173: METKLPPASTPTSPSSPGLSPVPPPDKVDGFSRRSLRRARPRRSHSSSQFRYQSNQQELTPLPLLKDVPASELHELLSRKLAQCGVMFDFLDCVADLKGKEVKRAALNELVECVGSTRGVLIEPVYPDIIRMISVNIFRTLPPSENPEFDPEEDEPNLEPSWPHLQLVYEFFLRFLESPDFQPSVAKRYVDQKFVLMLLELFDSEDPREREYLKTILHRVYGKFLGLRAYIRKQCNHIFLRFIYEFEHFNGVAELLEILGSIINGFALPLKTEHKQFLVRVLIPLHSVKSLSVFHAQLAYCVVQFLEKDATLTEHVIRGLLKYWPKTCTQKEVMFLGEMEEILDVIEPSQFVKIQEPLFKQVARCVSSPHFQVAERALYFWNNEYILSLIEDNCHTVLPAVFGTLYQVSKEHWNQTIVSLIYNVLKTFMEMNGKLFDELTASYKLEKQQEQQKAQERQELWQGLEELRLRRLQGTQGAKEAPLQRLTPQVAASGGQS
UniProt P10644, whole entry, looked up: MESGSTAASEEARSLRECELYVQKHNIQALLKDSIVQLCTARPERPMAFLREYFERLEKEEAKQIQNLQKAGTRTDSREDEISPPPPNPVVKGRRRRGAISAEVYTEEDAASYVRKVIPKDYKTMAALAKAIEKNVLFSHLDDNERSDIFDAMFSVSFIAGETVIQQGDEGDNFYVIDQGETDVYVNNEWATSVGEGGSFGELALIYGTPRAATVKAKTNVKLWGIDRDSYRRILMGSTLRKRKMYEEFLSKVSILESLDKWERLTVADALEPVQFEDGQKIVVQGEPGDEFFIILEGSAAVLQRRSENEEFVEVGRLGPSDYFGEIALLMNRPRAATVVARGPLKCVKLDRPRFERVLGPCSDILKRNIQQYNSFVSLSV

Experiments:
Assay in all cases: log2 fold change, soluble protein after heating vs DMSO (PISA); higher = thermal stabilisation; K562 cells, 10 uM, 30 min; active = over 0.2 and 3.5 SD of the protein, either way, in both replicates (recomputed)
[1] = compound: C#Cc1cccc(Nc2ncnc3cc(OCCOC)c(OCCOC)cc23)c1 [erlotinib]
Procedure, shortened: (§1)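 For each measurement, 10 μM compound was applied for 30 min to K562 cells at 2×10^6 cells/mL. Aliquots were heated for 3 min across 48°C-58°C, pooled, and extracted in PBS with 0.5% NP-40 at 4°C; the supernatant after 21,000xg for 90 min was soluble protein. This was quantified by TMTpro 16plex LC-MS/MS with channel sums equalised, and thermal stability was reported relative to control samples from duplicates, on a log2 fold-change scale.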

[2] = compound: C/C(=N\NC(=O)C1=CC(=CC=C1)S(=O)(=O)N2CCOCC2)/C3=C(C=CC(=C3)Cl)O
Procedure, shortened: as §1

[3] = compound: C1=CC(=CC=C1C2=NC3=C(N2)C=C(C=C3)C(=O)N)OC4=CC=C(C=C4)Cl
Procedure, shortened: as §1

[4] = compound: C1=CC2=C(C=CC(=C2)/C=C\3/C(=O)NC(=NCC4=CC=CS4)S3)N=C1
Procedure, shortened: as §1

[5] = compound: C1=CC2=NC=CN=C2C=C1/C=C/3\C(=O)NC(=O)S3
Procedure, shortened: as §1

[6] = compound: C1=CC=C(C=C1)C2=NC(=C(N2)C3=CC=NC=C3)C4=CC(=C(C=C4)Cl)O
Procedure, shortened: as §1

[7] = compound: C1=CC=C2C(=C1)C3=NNC4=CC=CC(=C43)C2=O
Procedure, shortened: as §1

[8] = compound: C1COCCN1CCN2C3=CC=CC=C3N=C2NC(=O)C4=CC(=CC=C4)[N+](=O)[O-] [IRAK-1-4 Inhibitor I]
Procedure, shortened: as §1

[9] = compound: C=CC(=O)N1CCC[C@@H](n2nc(-c3ccc(Oc4ccccc4)cc3)c3c(N)ncnc32)C1 [ibrutinib]
Procedure, shortened: as §1

[10] = compound: CC(=O)c1cnc2ccc(-c3cc(Cl)c(O)c(Cl)c3)nc2c1N[C@H]1CC[C@H](CN(C)C)CC1
Procedure, shortened: as §1

[11] = compound: CC(C)(C)Cn1c(N)nc2ccc(-c3[nH]c(C(C)(C)C)nc3-c3ccc(F)cc3)nc21 [ralimetinib]
Procedure, shortened: as §1

[12] = compound: CC(C)C1=C2N=C(C=C(N2N=C1)NCC3=CC=CC=C3)NCCCCCCN
Procedure, shortened: as §1

[13] = compound: CC(C)C[C@@H](C=O)NC(=O)[C@H](CC(C)C)NC(=O)[C@H](CC(C)C)NC(=O)OCc1ccccc1
Procedure, shortened: as §1

[14] = compound: CC(C)N(C[C@H]1O[C@@H](n2cnc3c(N)ncnc32)[C@H](O)[C@@H]1O)[C@H]1C[C@@H](CCc2nc3cc(C(C)(C)C)ccc3[nH]2)C1 [pinometostat]
Procedure, shortened: as §1

[15] = compound: C1=CC(=C(C=C1Cl)C2=NC3=NC=CN=C3C(=N2)NC4=CC=NC=C4)F
Procedure, shortened: as §1

[16] = compound: C1CCN(C1)C(=O)NC2=CC=CC(=C2)NC3=NC=C(C(=N3)NCCC4=CN=CN4)Br
Procedure, shortened: as §1

[17] = compound: C1CN(CCC1(CC2=CC=C(C=C2)Cl)N)C3=NC=NC4=C3C=CN4
Procedure, shortened: as §1

[18] = compound: CC(C)(O)CC(=O)NCCn1ccc2ncnc(Nc3ccc(Oc4cccc(C(F)(F)F)c4)c(Cl)c3)c21
Procedure, shortened: as §1

[19] = compound: CC1=C(C2=C(C=C1)C(=O)C3=CC=CC=C3N2CCCN)C
Procedure, shortened: as §1

[20] = compound: CC1=C(C(CC(=O)N1)C2=CC=C(C=C2)C(F)(F)F)C(=O)NC3=C(C=C4C(=C3)C=NN4)F
Procedure, shortened: as §1

Target	log2 fold change [1]	log2 fold change [2]	log2 fold change [3]	log2 fold change [4]	log2 fold change [5]	log2 fold change [6]	log2 fold change [7]	log2 fold change [8]	log2 fold change [9]	log2 fold change [10]	log2 fold change [11]	log2 fold change [12]	log2 fold change [13]	log2 fold change [14]	log2 fold change [15]	log2 fold change [16]	log2 fold change [17]	log2 fold change [18]	log2 fold change [19]	log2 fold change [20]
PRKD3 (UniProt O94806)	inactive: 0.051	inactive: 0.373	inactive: 0.013	inactive: -0.197	inactive: 0.034	inactive: 0.055	inactive: -0.507	inactive: 0.189	inactive: 0.059	active: -2.06	inactive: -0.089	inactive: -0.129	inactive: 0.06	inactive: 0.266	–	–	–	–	–	–
PPP2R5E (UniProt Q16537)	inactive: 0.017	inactive: 0.096	inactive: -0.061	inactive: -0.007	inactive: 0	inactive: 0.075	inactive: 0.054	inactive: -0.01	inactive: -0.001	inactive: -0.033	inactive: -0.029	inactive: -0.144	inactive: 0.019	inactive: 0.015	inactive: 0.005	inactive: -0.013	inactive: 0.056	inactive: -0.046	inactive: 0.136	–
PRKCQ (UniProt Q04759)	inactive: 0.036	inactive: 0.047	inactive: 0.03	inactive: 0.093	inactive: 0.012	inactive: 0.012	inactive: -0.008	inactive: 0.004	inactive: -0.026	active: -2.02	inactive: -0.02	inactive: -0.103	inactive: -0.011	inactive: 0.028	inactive: 0.024	inactive: -0.007	inactive: -0.061	inactive: -0.037	inactive: 0.018	–
PPP1R12C (UniProt Q9BZL4)	inactive: -0.13	–	inactive: -0.059	–	inactive: 0.064	inactive: 0.037	–	–	inactive: -0.024	–	inactive: -0.028	inactive: -0.126	inactive: -0.041	–	inactive: -0.011	inactive: -0.05	inactive: -0.238	inactive: 0.045	inactive: -0.157	–
PRKAR1B (UniProt P31321)	inactive: -0.027	inactive: -0.056	inactive: 0.013	inactive: 0.205	inactive: 0.282	inactive: -0.006	inactive: 0.102	inactive: 0.005	inactive: 0.004	inactive: -0.112	inactive: 0.143	inactive: -0.11	inactive: 0.007	inactive: 0.105	inactive: -0.036	inactive: 0.086	inactive: -0.077	inactive: -0.013	inactive: -0.104	–
PRELID3B (UniProt Q9Y3B1)	inactive: -0.063	inactive: 0.208	inactive: 0.271	inactive: 0.082	–	–	inactive: 0.006	–	–	inactive: -0.152	–	inactive: -0.573	–	–	inactive: -0.047	inactive: -0.107	inactive: -0.041	inactive: 0.177	inactive: -0.035	–
PPP2R5A (UniProt Q15172)	inactive: 0.011	inactive: 0.098	inactive: -0.022	inactive: 0.018	inactive: 0.055	inactive: 0.078	inactive: 0.017	inactive: 0.005	inactive: -0.024	inactive: 0.004	inactive: 0.066	inactive: -0.193	inactive: 0.023	inactive: 0.025	inactive: 0.009	inactive: 0	inactive: -0.015	inactive: -0.16	inactive: 0.071	–
PROCR (UniProt Q9UNN8)	inactive: -0.036	inactive: 0.033	inactive: 0.025	inactive: -0.04	inactive: 0.001	–	inactive: -0.436	inactive: 0.014	inactive: -0.011	inactive: 0.151	–	inactive: -0.003	–	inactive: -0.143	inactive: 0.082	inactive: -0.041	inactive: 0.072	inactive: -0.115	inactive: 0.113	inactive: -0.029
PRPH isoform 2 (UniProt P41219)	inactive: 0.046	inactive: -0.181	inactive: 0.034	inactive: -0.234	inactive: 0.097	inactive: -0.231	inactive: -0.1	inactive: -0.122	inactive: 0.171	inactive: 0.144	inactive: 0.226	inactive: -0.081	inactive: 0.006	inactive: 0.097	–	inactive: 0.122	inactive: -0.105	–	inactive: -0.287	inactive: 0.056
PPP2R5B (UniProt Q15173)	inactive: -0.044	inactive: 0.039	inactive: -0.05	inactive: -0.003	inactive: 0.072	–	inactive: 0.124	–	inactive: -0.083	inactive: 0.165	–	inactive: 0.092	–	–	–	–	–	–	–	–
PRKAR1A (UniProt P10644)	inactive: 0.078	inactive: -0.084	inactive: -0.027	inactive: 0.116	inactive: 0.018	inactive: 0.066	inactive: 0.139	inactive: -0.068	inactive: 0.035	inactive: -0.049	inactive: 0.268	inactive: -0.149	inactive: 0.041	inactive: 0.131	inactive: -0.037	inactive: 0.128	inactive: -0.017	inactive: 0.041	inactive: -0.127	–
PRKCG (UniProt P05129)	inactive: -0.04	inactive: 0.058	inactive: 0.04	inactive: 0.144	inactive: -0.033	inactive: 0.074	inactive: 0.023	inactive: 0.025	inactive: -0.024	inactive: -0.351	inactive: 0.049	inactive: -0.097	inactive: 0.055	inactive: 0.054	inactive: 0.052	inactive: -0.052	inactive: -0.138	inactive: -0.099	inactive: 0.028	–

An excerpt of these results, in CSV form:
Target,log2 fold change [1],log2 fold change [2],log2 fold change [3],log2 fold change [4],log2 fold change [5],log2 fold change [6],log2 fold change [7],log2 fold change [8],log2 fold change [9],log2 fold change [10],log2 fold change [11],log2 fold change [12],log2 fold change [13],log2 fold change [14],log2 fold change [15],log2 fold change [16],log2 fold change [17],log2 fold change [18],log2 fold change [19],log2 fold change [20]
PRKAR1B (UniProt P31321),inactive: -0.027,inactive: -0.056,inactive: 0.013,inactive: 0.205,inactive: 0.282,inactive: -0.006,inactive: 0.102,inactive: 0.005,inactive: 0.004,inactive: -0.112,inactive: 0.143,inactive: -0.11,inactive: 0.007,inactive: 0.105,inactive: -0.036,inactive: 0.086,inactive: -0.077,inactive: -0.013,inactive: -0.104,–
PRELID3B (UniProt Q9Y3B1),inactive: -0.063,inactive: 0.208,inactive: 0.271,inactive: 0.082,–,–,inactive: 0.006,–,–,inactive: -0.152,–,inactive: -0.573,–,–,inactive: -0.047,inactive: -0.107,inactive: -0.041,inactive: 0.177,inactive: -0.035,–
PPP2R5A (UniProt Q15172),inactive: 0.011,inactive: 0.098,inactive: -0.022,inactive: 0.018,inactive: 0.055,inactive: 0.078,inactive: 0.017,inactive: 0.005,inactive: -0.024,inactive: 0.004,inactive: 0.066,inactive: -0.193,inactive: 0.023,inactive: 0.025,inactive: 0.009,inactive: 0,inactive: -0.015,inactive: -0.16,inactive: 0.071,–
